The assay can be described thus: qHTS Assay for Modulators of Lamin A Splicing. The following applies: HeLa LMNA splicing GFP/RFP minigene ratio, 48 h. The method in brief:
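S3 HeLa stable clones carrying a lamin A-EGFP splicing minigene plus DsRed2 were seeded at 600 cells/well in Opti-MEM with 2% FBS, pin-dosed and incubated 48 h at 37°C. Acumen cytometry (488 nm) gave the GFP/RFP total-intensity ratio.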
In general terms: qHTS replaces the single test concentration by a dilution series.

Where [1] appears, read: measured here: GFP splicing reporter channel.
Where [2] appears, read: measured here: RFP viability control channel.

The list shows a part of the results. Further columns of the screen follow, without active or inactive calls. The list favours compounds with an active or inconclusive main result. Potencies come from curve fits of mixed quality, noted in brackets.

Among the data in PubChem BioAssay AID1487 (National Center for Advancing Translational Sciences (NCATS), 2009) are AC50 values, retold here.

The AC50 is the midpoint of the concentration-response curve, whichever way the signal moves.

Consider `O=C(NN1CCCCC1)c1cccc(COc2ccc(Cl)cc2)c1`, for which, under setting [1], the AC50 was 35.5 µM [rising, single point]. On to `Fc1cccc2sc(Nc3nc4c(F)cccc4s3)nc12`, for which, under setting [2], the AC50 was 7.94 µM [rising, partial curve]. As to `Cc1ccc(-n2nnnc2SCC(=O)Nc2ccccc2-c2ccccc2)cc1C`, under setting [2], the AC50 is 31.6 µM [rising, single point]. In the case of `O=C1Oc2ccccc2C(=O)/C1=C\N1CCN(c2ccccc2)CC1`, the AC50 is 0.0282 µM [rising, full curve, poor fit] under setting [1] and 0.0251 µM [rising, full curve, poor fit] under setting [2]. Turning to `CCN(CC)c1nc2ccccc2nc1C(=O)Nc1ccc(C(C)=O)cc1`, the AC50 reads like this: under setting [1], 1.12 µM [rising, partial curve, poor fit]; under setting [2], 22.4 µM [rising, partial curve, poor fit]. With `COc1cc(Br)cc(/C=N/c2ncn[nH]2)c1O`, the AC50 under setting [1] was 35.5 µM [falling, single point].

As to `O=C(COC(=O)c1cccc(S(=O)(=O)NCc2ccccc2)c1)c1ccccc1`, the AC50 reads like this: under setting [1], 4.47 µM [rising, full curve]; under setting [2], 12.6 µM [rising, partial curve]. Turning to `Cc1nn(Cc2cccc(F)c2)c(C)c1NC(=O)c1ccc(COc2ccccc2Cl)cc1`, under setting [2], the AC50 was 35.5 µM [rising, single point]. Take `COc1ccccc1NC(=O)CN1CCN(CC(=O)Nc2ccc(Cl)c(C(F)(F)F)c2)CC1`: the AC50 was 20 µM [falling, partial curve] under setting [1] and 22.4 µM [falling, partial curve] under setting [2].

For `CCN(CC)Cc1nc2sc(C)c(C)c2c(=O)[nH]1`, the AC50 runs as follows: under setting [1], 15.8 µM [rising, single point]; under setting [2], 20 µM [rising, single point]. For the molecule `Cc1nn(-c2ccccc2)c2c1C(c1ccc(O)c(O)c1)N1C(=N2)C(Nc2ccccc2)=Nc2ccccc21` (configuration not stated), the AC50 was 7.94 µM [falling, single point] under setting [1] and 0.0316 µM [falling, single point] under setting [2]. As for `Cc1nnsc1C(=O)N/N=C/c1ccc(OC(F)(F)F)cc1`, the AC50 under setting [1] was 2.51 µM [rising, partial curve]. Same read-out and setting: under `COC(=O)c1c(NC(=O)COC(=O)[C@@H](NS(=O)(=O)c2cccc(Cl)c2)C(C)C)sc2c1CCC2` stands 11.2 µM [rising, partial curve]. Take `Clc1ccccc1C1=Nn2c(nnc2-c2ccncc2)SC1`: the AC50 under setting [2] is 11.2 µM [rising, single point]. On the same count and under the same terms, next, `O=C(Nc1ccncc1)c1cc(-c2ccccn2)nc2ccc(Br)cc12`: 12.6 µM [falling, partial curve, poor fit]. Same read-out and setting: next, `Cc1ccc(-c2nc(C)c(CCNC(=O)c3cccs3)s2)cc1`: 22.4 µM [falling, partial curve, poor fit]. In the case of `COC(=O)c1ccc(NC(=O)CCN2CCN(CCC(=O)Nc3ccc(C(=O)OC)cc3)CC2)cc1`, the AC50 runs as follows: under setting [1], 35.5 µM [rising, single point]; under setting [2], 25.1 µM [rising, single point]. For the molecule `O=C(N/N=C/c1ccncc1)c1cccc([N+](=O)[O-])c1`, the AC50 under setting [2] was 1.58 µM [rising, full curve]. With `Cc1nc2ccccc2cc1OCc1ccc(Cl)cc1`, the AC50 under setting [2] is 3.55 µM [rising, partial curve]. `CC(C)(C)CC(=O)O/N=C(\N)c1ccncc1`: the AC50 under setting [2] was 5.62 µM [rising, single point]. Regarding `Cc1cnc(CNc2ncncc2-c2ccc3c(c2)OCO3)cn1`, the AC50 under setting [1] was 35.5 µM [falling, single point] and the AC50 under setting [2] is 35.5 µM [falling, single point]. Consider `COc1ccc(CNc2ncnc3ccc(-c4ccc(N(C)C)cc4)cc23)c(OC)c1`, for which the AC50 was 7.08 µM [falling, partial curve] under setting [1] and 7.94 µM [falling, partial curve] under setting [2].

With `CSc1ccc(OC2CCCCC2NS(=O)(=O)c2ccc(Cl)cc2)cc1` (configuration not stated), the AC50 was 31.6 µM [rising, single point] under setting [1] and 31.6 µM [rising, single point] under setting [2]. Take `O=C(CSc1nnc2c(n1)[nH]c1ccccc12)Nc1ccc(N2CCOCC2)cc1`: the AC50 reads like this: under setting [1], 0.1 µM [falling, full curve, poor fit]; under setting [2], 8.91 µM [falling, partial curve, poor fit].

Take `c1ccc2c(c1)COC(CNC1CCCCC1)OC2`: the AC50 under setting [2] was 3.98 µM [falling, full curve, poor fit]. In the case of `CCOC(=O)c1cccc(NC(=O)Cn2cc3c(n2)CCC(C)C3)c1` (configuration not stated), the AC50 by setting is: under setting [1], 17.8 µM [rising, single point]; under setting [2], 15.8 µM [rising, partial curve]. Turning to `CC(=O)Nc1ccc2nc(CN3CCN(Cc4ccc(F)cc4)C(CCO)C3)ccc2c1` (configuration not stated), the AC50 by setting is: under setting [1], 0.398 µM [falling, full curve, poor fit]; under setting [2], 0.126 µM [falling, full curve, poor fit]. As to `CCc1cccc(NC(=O)c2cc3c(=O)n(Cc4ccccc4)ccc3nc2C)c1`, the AC50 under setting [2] was 12.6 µM [rising, single point]. Still for that read-out and setting: under `O=C(c1cc2nc(-c3ccccc3)cc(-c3ccccc3)n2n1)N1CCN(C(=O)c2ccco2)CC1` stands 14.1 µM [rising, partial curve]; under `CCOc1ccc(-c2c[n+]3c(n2-c2ccccc2)CCCCC3)cc1`, 2 µM [rising, partial curve]. As for `Cc1noc(C)c1CSCC(=O)Nc1nc2ccc(Oc3ccccc3)cc2s1`, under setting [2], the AC50 was 31.6 µM [rising, single point]. As for `CCC(=O)N1CCc2cc(CNS(=O)(=O)c3cc(OC)ccc3OC)ccc21`, the AC50 under setting [1] was 0.0282 µM [rising, full curve, poor fit] and the AC50 under setting [2] was 0.0224 µM [rising, full curve, poor fit]. As for `O=C(CSc1nnc(Cn2cnc3ccccc32)o1)c1ccccc1`, the AC50 under setting [2] is 22.4 µM [rising, single point]. On the same count and under the same terms, under `COc1ccc2cc3cc(C(=O)NCCN4CCc5ccccc5C4)sc3nc2c1` stands 7.08 µM [rising, partial curve].

For the molecule `CCOC(=O)N/N=C/c1c(C)nn(-c2cccc(C(F)(F)F)c2)c1Cl`, the AC50 under setting [2] was 5.62 µM [rising, single point].

With `CCOc1ccc(CN2CCN(C(=O)c3ccccc3)CC2)cc1`, the AC50 is, setting by setting: under setting [1], 10 µM [rising, partial curve, poor fit]; under setting [2], 15.8 µM [rising, partial curve].

For `COc1cc(OC)cc(C(=O)NC(=S)NNC(=O)c2cnccn2)c1`, the AC50 under setting [2] is 3.55 µM [rising, full curve, poor fit].

As to `Cc1ccc(CNC(=O)C23CN(Cc4ccccc4)CC2C(c2ccc([N+](=O)[O-])cc2)=NO3)o1` (configuration not stated), the AC50 is 31.6 µM [rising, single point] under setting [1] and 35.5 µM [rising, single point] under setting [2].

With `COc1ccc(C(=O)NC(=S)N(CCC(C)C)c2c(N)n(Cc3ccccc3)c(=O)[nH]c2=O)cc1`, under setting [2], the AC50 was 22.4 µM [rising, single point]. Same read-out and setting: under `CCOC(=O)C1=C(C)NC2=C(C1c1ccc([N+](=O)[O-])cc1)S(=O)(=O)c1ccccc12` (configuration not stated) stands 5.62 µM [rising, single point]. For `Cc1ccc(C(=O)N/C(=C/c2ccco2)C(=O)NC2CCS(=O)(=O)C2)cc1` (configuration not stated), under setting [1], the AC50 is 0.112 µM [rising, full curve, poor fit].

Take `COc1cccc(C2=CC(c3cc(OC)ccc3OC)n3nnnc3N2)c1` (configuration not stated): the AC50 under setting [1] is 35.5 µM [falling, single point]. `CCCCc1cc2c(s1)CCCC/C2=N/O`: the AC50 was 31.6 µM [rising, single point] under setting [1] and 31.6 µM [rising, single point] under setting [2]. Take `COc1ccc2[nH]c3c(c2c1)CCNC3C1CC=C(C)CC1` (configuration not stated): under setting [1], the AC50 was 0.112 µM [rising, full curve]. Take `Cc1ccc(C)c(NC(=S)NNC(=O)c2csc3c2CCC(C)C3)c1` (configuration not stated): the AC50 is, setting by setting: under setting [1], 20 µM [rising, partial curve]; under setting [2], 25.1 µM [rising, partial curve].

For the molecule `CC(=O)Oc1ccc(N2C(=O)C3C(C2=O)C2(C)C=CC3(C)O2)cc1` (configuration not stated), under setting [2], the AC50 was 22.4 µM [rising, single point]. On the same count and under the same terms, under `COc1ccc(CCN2C(=O)c3ccncc3C2=O)cc1OC` stands 6.31 µM [falling, single point].

As for `O=C(Cn1ccnc1[N+](=O)[O-])NCCO`, the AC50 runs as follows: under setting [1], 6.31 µM [falling, single point]; under setting [2], 14.1 µM [falling, single point]. For `OCCN1CCN(c2ncnc3sc(-c4ccccc4)cc23)CC1`, under setting [1], the AC50 is 35.5 µM [falling, partial curve, poor fit]. Turning to `Cc1ccc(OCc2nc(-c3ccccc3)no2)c(C)c1`, the AC50 under setting [2] is 0.01 µM [rising, full curve, poor fit].

For the molecule `O=C(c1cccnc1)N1CCN(S(=O)(=O)c2ccc(Cl)cc2)CC1`, the half-maximal activity concentration (AC50) under setting [2] is 7.08 µM [rising, partial curve, poor fit]. Take `CCOc1ccc(NC(=O)c2c(Nc3ccccc3C)sc(C(=O)c3ccccc3)c2N)cc1`: the AC50 is 35.5 µM [rising, single point] under setting [1] and 31.6 µM [rising, single point] under setting [2]. Consider `CCCCCC(=O)Nc1ccccc1N1CCN(c2ccccc2)CC1`, for which, under setting [2], the AC50 was 35.5 µM [rising, single point].

As for `CC(=O)c1c(O)ccc2c(-c3ccccc3)cc(=O)oc12`, the AC50 by setting is: under setting [1], 35.5 µM [rising, single point]; under setting [2], 35.5 µM [rising, single point]. As to `CS(=O)(=O)c1ccc(C(=O)NCCN2C(=O)S/C(=C\c3cccnc3)C2=O)cc1[N+](=O)[O-]`, the AC50 by setting is: under setting [1], 1.78 µM [falling, full curve, poor fit]; under setting [2], 5.62 µM [falling, single point].
